Data on 1 molecule can be found in patent US7179495B1 (Universitaetsklinikum Freiburg, priority 1998, dated 2007).

Read-outs that look alike come from different tables or passages of the source.

In experiment [1] the test system is HT144 (human melanoma metastasis). The following applies: % of the untreated cells.
In experiment [2] the test system is A431 (human squamous cell carcinoma). The following applies: % of the untreated cells.
Experiment [3] deals with Jurkat (human leukaemic lymphoma). The following applies: % of the untreated cells.
Experiment [4] relates to peripheral blood mononuclear cells (PBMC). The following applies: for proliferation of PBMC: PHA 1 μg/ml, 24 h, FIG. 7.

Consider `CC(C)=CCC[C@]1(C)[C@@H](CC=C(C)C)CC2(CC=C(C)C)C(=O)C(CC=C(C)C)=C(O)C1(C(=O)C(C)C)C2=O` (stereo partly drawn) [hyperforin], for which the Trypan blue exclusion in experiment [1] (hyperforin 2.5 μg/ml) is recorded as 100 % of the cells; in experiment [1] (hyperforin 5 μg/ml), 100 % of the cells; in experiment [1] (hyperforin 10 μg/ml), 100 % of the cells; in experiment [1] (hyperforin 20 μg/ml), 100 % of the cells; in experiment [1] (hyperforin 40 μg/ml), 90 % of the cells; in experiment [1] (hyperforin 80 μg/ml), 80 % of the cells. Besides, the Trypan blue exclusion in experiment [2] (hyperforin 2.5 μg/ml) is 100 % of the cells; in experiment [2] (hyperforin 5 μg/ml), 100 % of the cells; in experiment [2] (hyperforin 10 μg/ml), 100 % of the cells; in experiment [2] (hyperforin 20 μg/ml), 95 % of the cells; in experiment [2] (hyperforin 40 μg/ml), 90 % of the cells; in experiment [2] (hyperforin 80 μg/ml) it was 90 % of the cells. In addition, the Trypan blue exclusion in experiment [3] (hyperforin 2.5 μg/ml), in experiment [3] (hyperforin 5 μg/ml), in experiment [3] (hyperforin 10 μg/ml), in experiment [3] (hyperforin 20 μg/ml), in experiment [3] (hyperforin 40 μg/ml) and in experiment [3] (hyperforin 80 μg/ml) was 100 % of the cells throughout. Moreover, the “concentration from which a proliferation-inhibiting effect is seen” value in experiment [4] (human lymphocytes) was at least 100 ng/mL. The “proliferation of PBMC” value in experiment [4] (hyperforin 100 μg/ml) is given as “virtually completely inhibited”; in experiment [4] (small concentrations of hyperforin), “proliferation-inhibiting effect”.
